For at least one compound, name, drawing or mass did not settle the structure.
What was measured:
[1] = test system: maternally deprived animals; assay: Prepulse inhibition of startle in maternally deprived animals; assay type: in vivo, male Wistar rats; conditions: maternally deprived animals treated with clozapine
medial prefrontal cortex = assay: Brain microdialysis of basal dopamine, glutamate and GABA levels in the medial prefrontal cortex; assay type: in vivo, male Wistar rats; conditions: maternally deprived animals treated with clozapine

CN1CCN(C2=Nc3cc(Cl)ccc3Nc3ccccc32)CC1 [clozapine]
prepulse inhibition (PPI) [1]: unmasks a PPI deficient | GABA levels in the prefrontal cortex (medial prefrontal cortex): normalises the GABA levels in the prefrontal cortex

Source: patent US20110136738A1, “Alternatively Transcribed Genes Associated with Schizophrenia” (University College Dublin, National University of Ireland, …, priority 2008, published 2011)
